Data as given in publication PMC3617099.
These are yes or no findings as the source states them, for the method shown. In cells and extracts the contact can be indirect. Some binding calls cover weakened binding; strength is not graded here.

Amino acid sequences for entries named in this document (tags omitted).
UniProt P04150: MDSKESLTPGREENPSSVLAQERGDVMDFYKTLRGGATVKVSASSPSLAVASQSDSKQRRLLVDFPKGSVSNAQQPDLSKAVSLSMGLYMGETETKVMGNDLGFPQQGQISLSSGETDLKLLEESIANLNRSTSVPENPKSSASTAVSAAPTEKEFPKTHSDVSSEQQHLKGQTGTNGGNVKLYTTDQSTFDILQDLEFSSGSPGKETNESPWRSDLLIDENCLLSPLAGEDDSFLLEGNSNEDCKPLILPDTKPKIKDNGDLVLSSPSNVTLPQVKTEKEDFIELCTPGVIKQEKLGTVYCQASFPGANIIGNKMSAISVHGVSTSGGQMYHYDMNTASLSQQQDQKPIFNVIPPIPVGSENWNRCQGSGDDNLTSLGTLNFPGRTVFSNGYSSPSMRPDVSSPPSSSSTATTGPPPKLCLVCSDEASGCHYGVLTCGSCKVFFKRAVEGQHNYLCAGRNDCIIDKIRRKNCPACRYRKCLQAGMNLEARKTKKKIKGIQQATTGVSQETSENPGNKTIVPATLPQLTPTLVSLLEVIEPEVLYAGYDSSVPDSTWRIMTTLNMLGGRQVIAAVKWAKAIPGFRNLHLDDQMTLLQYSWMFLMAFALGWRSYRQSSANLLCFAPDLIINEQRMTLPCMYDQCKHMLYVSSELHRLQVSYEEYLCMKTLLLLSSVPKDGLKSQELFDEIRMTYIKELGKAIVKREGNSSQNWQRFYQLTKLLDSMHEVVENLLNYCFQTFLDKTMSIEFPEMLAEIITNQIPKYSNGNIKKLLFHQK
UniProt O60244: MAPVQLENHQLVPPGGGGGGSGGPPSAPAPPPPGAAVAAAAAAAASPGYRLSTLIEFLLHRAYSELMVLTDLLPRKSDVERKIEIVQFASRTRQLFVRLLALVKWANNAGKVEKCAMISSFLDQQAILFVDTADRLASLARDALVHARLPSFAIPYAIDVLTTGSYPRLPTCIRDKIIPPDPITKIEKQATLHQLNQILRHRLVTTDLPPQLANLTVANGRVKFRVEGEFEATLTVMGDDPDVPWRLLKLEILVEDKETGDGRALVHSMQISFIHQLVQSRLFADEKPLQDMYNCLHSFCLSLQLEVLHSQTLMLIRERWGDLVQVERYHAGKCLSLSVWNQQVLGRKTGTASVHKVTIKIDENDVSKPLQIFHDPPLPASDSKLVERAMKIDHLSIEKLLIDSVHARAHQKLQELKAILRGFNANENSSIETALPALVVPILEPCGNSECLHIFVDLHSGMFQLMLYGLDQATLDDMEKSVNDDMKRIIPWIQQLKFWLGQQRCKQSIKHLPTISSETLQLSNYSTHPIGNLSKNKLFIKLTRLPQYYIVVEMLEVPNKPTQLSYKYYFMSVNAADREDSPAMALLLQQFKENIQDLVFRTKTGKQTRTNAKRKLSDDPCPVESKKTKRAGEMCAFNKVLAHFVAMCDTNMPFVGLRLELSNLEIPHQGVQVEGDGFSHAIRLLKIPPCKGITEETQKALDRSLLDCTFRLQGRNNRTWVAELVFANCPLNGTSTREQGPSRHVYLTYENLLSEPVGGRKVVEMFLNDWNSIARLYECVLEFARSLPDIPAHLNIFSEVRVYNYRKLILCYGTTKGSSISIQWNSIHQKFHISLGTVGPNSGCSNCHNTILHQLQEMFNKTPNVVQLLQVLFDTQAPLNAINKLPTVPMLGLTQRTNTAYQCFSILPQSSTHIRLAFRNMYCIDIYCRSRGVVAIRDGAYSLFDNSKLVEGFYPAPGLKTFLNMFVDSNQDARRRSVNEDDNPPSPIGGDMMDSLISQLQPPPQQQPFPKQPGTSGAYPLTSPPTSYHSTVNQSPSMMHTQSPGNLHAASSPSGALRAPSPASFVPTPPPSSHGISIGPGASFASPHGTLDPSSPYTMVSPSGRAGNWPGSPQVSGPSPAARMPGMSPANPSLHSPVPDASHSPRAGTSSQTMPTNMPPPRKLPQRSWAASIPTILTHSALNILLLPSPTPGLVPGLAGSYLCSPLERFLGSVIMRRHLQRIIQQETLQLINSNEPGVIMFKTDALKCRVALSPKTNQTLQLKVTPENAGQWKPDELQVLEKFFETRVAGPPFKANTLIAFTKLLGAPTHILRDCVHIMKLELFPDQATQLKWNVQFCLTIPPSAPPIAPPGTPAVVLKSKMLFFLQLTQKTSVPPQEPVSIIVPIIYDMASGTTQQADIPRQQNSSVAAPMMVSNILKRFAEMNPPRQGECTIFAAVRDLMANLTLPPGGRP

Molecular target: glucocorticoid receptor (GR) (human (endogenous in HASM cells)) (UniProt P04150)
Assay: co-IP; anti-GR rabbit IgG on Protein G Dynabeads, native conditions, 2 h at 4°C, eluted at pH 3.0; nuclear extracts of HASM cells, unstimulated or treated with IL-13, DEX or IL-13+DEX, with or without pretreatment with U0126, SP600125 or SB202190; immunoblot for MED14 and phospho-GR Ser211

binding: binds
Substance: MED14 (from UniProt O60244 1-1454)
